Measurements reported in PubChem BioAssay AID1508597 (Cure First, 2020).
Shown is an unselected part of the about 2,100 reagents, under one of the conditions tested. 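Calls flag viability under 80% in either arm, not effects specific to rucaparib; the reference for percent is not stated.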 Not given: the 100% reference.

Test: 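Knock-downs altering ovarian cancer cell survival with or without PARP inhibitor rucaparib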 (primary screen)
Cells: human ovarian carcinoma lines grown from tumours: OCI-P5x (papillary serous) and OCI-C5x (clear cell)
Reagent: siRNA pool against human genes, 1.25 pmol siRNA per well
Time to read-out: 72 h or 96 h, depending on the cell culture
Conditions: rucaparib 20 µM (about IC30) or vehicle, present until read-out
Rucaparib or vehicle: Rucaparib
Cell line: OCI-P5x (serous)
Measured: 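Luminescent ATP-based viability assay read 72 or 96 h after transfection, depending on culture, given as normalised percent viability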
Direction: viability, normalised: higher = more viable cells remaining
Hit rule: 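Active when normalised viability falls below 80 percent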
Calls: active = viability under 80%; inactive = viability 80% or more

The opening 4 entries as a preview:
Target gene | technical replicate | viability, normalised (%) | outcome
RAD23B (RAD23 nucleotide excision repair protein B) | 1 | 59.3 | active
RAD23B (RAD23 nucleotide excision repair protein B) | 2 | 75.4 | active
RAD23B (RAD23 nucleotide excision repair protein B) | 3 | 57.2 | active
MED4 (mediator complex subunit 4) | 1 | 60.5 | active

Main list, from the first entry:
Target gene | technical replicate | viability, normalised (%) | outcome
RAD23B (RAD23 nucleotide excision repair protein B) | 1 | 59.3 | active
RAD23B (RAD23 nucleotide excision repair protein B) | 2 | 75.4 | active
RAD23B (RAD23 nucleotide excision repair protein B) | 3 | 57.2 | active
MED4 (mediator complex subunit 4) | 1 | 60.5 | active
MED4 (mediator complex subunit 4) | 2 | 66.7 | active
MED4 (mediator complex subunit 4) | 3 | 55 | active
ZBTB7A (zinc finger and BTB domain containing 7A) | 1 | 67.6 | active
ZBTB7A (zinc finger and BTB domain containing 7A) | 2 | 42.3 | active
ZBTB7A (zinc finger and BTB domain containing 7A) | 3 | 74.2 | active
ASXL1 (ASXL transcriptional regulator 1) | 1 | 90.3 | inactive
ASXL1 (ASXL transcriptional regulator 1) | 2 | 94.6 | inactive
ASXL1 (ASXL transcriptional regulator 1) | 3 | 73 | active
MTOR (mechanistic target of rapamycin kinase) | 1 | 89.8 | inactive
MTOR (mechanistic target of rapamycin kinase) | 2 | 73.7 | active
MTOR (mechanistic target of rapamycin kinase) | 3 | 67.9 | active
PKLR (pyruvate kinase L/R) | 1 | 100 | inactive
PKLR (pyruvate kinase L/R) | 2 | 93.2 | inactive
PKLR (pyruvate kinase L/R) | 3 | 99.9 | inactive
PLCG2 (phospholipase C gamma 2) | 1 | 67.4 | active
PLCG2 (phospholipase C gamma 2) | 2 | 60 | active
PLCG2 (phospholipase C gamma 2) | 3 | 64.1 | active
WAPL (WAPL cohesin release factor) | 1 | 91.8 | inactive
WAPL (WAPL cohesin release factor) | 2 | 97.8 | inactive
WAPL (WAPL cohesin release factor) | 3 | 73.4 | active
MAPK12 (mitogen-activated protein kinase 12) | 1 | 90 | inactive
MAPK12 (mitogen-activated protein kinase 12) | 2 | 84.8 | inactive
MAPK12 (mitogen-activated protein kinase 12) | 3 | 85.9 | inactive
MLH1 (mutL homolog 1) | 1 | 56.8 | active
MLH1 (mutL homolog 1) | 2 | 49.3 | active
MLH1 (mutL homolog 1) | 3 | 67 | active
SPAG11B (sperm associated antigen 11B) | 1 | 75 | active
SPAG11B (sperm associated antigen 11B) | 2 | 74.9 | active
SPAG11B (sperm associated antigen 11B) | 3 | 52.7 | active
SHPRH (SNF2 histone linker PHD RING helicase) | 1 | 46.8 | active
SHPRH (SNF2 histone linker PHD RING helicase) | 2 | 51.5 | active
SHPRH (SNF2 histone linker PHD RING helicase) | 3 | 56.8 | active
PCDHB16 (protocadherin beta 16) | 1 | 47.5 | active
PCDHB16 (protocadherin beta 16) | 2 | 43.2 | active
PCDHB16 (protocadherin beta 16) | 3 | 51.6 | active
SMAD2 (SMAD family member 2) | 1 | 48.5 | active
SMAD2 (SMAD family member 2) | 2 | 54.8 | active
SMAD2 (SMAD family member 2) | 3 | 56.2 | active
PCDHB9 (protocadherin beta 9) | 1 | 60.3 | active
PCDHB9 (protocadherin beta 9) | 2 | 60.3 | active
PCDHB9 (protocadherin beta 9) | 3 | 61.5 | active
SFN (stratifin) | 1 | 62.5 | active
SFN (stratifin) | 2 | 60.5 | active
SFN (stratifin) | 3 | 59.7 | active
FOXC1 (forkhead box C1) | 1 | 74.1 | active
FOXC1 (forkhead box C1) | 2 | 72.9 | active
FOXC1 (forkhead box C1) | 3 | 72.2 | active
RBBP7 (RB binding protein 7, chromatin remodeling factor) | 1 | 39.8 | active
RBBP7 (RB binding protein 7, chromatin remodeling factor) | 2 | 46.9 | active
RBBP7 (RB binding protein 7, chromatin remodeling factor) | 3 | 46.4 | active
TAF9 (TATA-box binding protein associated factor 9) | 1 | 67.7 | active
TAF9 (TATA-box binding protein associated factor 9) | 2 | 91.9 | inactive
TAF9 (TATA-box binding protein associated factor 9) | 3 | 58.3 | active
